Laboratory results published in PubChem BioAssay AID504648 (National Center for Advancing Translational Sciences (NCATS), 2011).
Out of some 390,000 compounds screened, about 610 (0.16%) were called active. Inconclusive means that the source gave no clear call. Such entries were picked first, then a sample of the others. Calls come from the whole dose curve; as a rule, active = well fitted inhibition curve with a large enough effect; inconclusive = small, poorly fitted or top-dose-only effect, or effect the other way, or another doubt; inactive = no such curve, though single readings can be large or run the other way. A potency beside an inconclusive call is a rough fit, not a confirmed value.

experiment: Nrf2 qHTS screen for inhibitors: counterscreen for cytotoxicity; details: A549 ARE-Fluc cells, CellTiter-Fluor viability, 18-24 h; series mostly up to 46 µM
In short: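 A549 ARE_Fluc cells in 5% FBS OPTI-MEM were exposed to compounds in concentration-response for 18-24 h at 37 deg C. Viability was read by CellTiter-Fluor fluorescence (Ex 405/Em 525) after 30 min, before the luciferase read.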
Potency is the fitted concentration of half-maximal effect.

Compound | Potency
COC(C(=O)Nc1ccc(Br)cc1F)c1ccccc1 (stereo unspecified) | inconclusive: 1.3 µM [activator, partial curve, poor fit]
COc1ccc(N2C(=O)NC3CC2(C)Oc2ccccc23)cc1OC (stereo unspecified) | inconclusive: 32.6 µM [falling, partial curve, poor fit]
O=C(Nc1cc(C(F)(F)F)ccc1Cl)[C@H](O)CCc1ccccc1 | inconclusive: 29.1 µM [falling, single point]
COc1ccc(-c2cc(C(=O)N(C)Cc3ccccc3F)c3ccccc3n2)cc1OC | inconclusive: 29.1 µM [falling, single point]
CCCc1ccc(-c2cc(C(=O)NN3CCOCC3)c3ccccc3n2)cc1 | inactive
Cc1ccc(NC(=O)c2ccc3c(=O)n4nc(Nc5ccccc5C)sc4nc3c2)cc1C | inconclusive: 29.1 µM [falling, single point]
Cc1ccc(/C=C2/SC(=S)N(c3ccc(S(=O)(=O)Nc4nccs4)cc3)C2=O)cc1 | inconclusive: 32.6 µM [falling, partial curve, poor fit]
CCN(CC)c1ccc(N=Nc2ncn[nH]2)cc1 | inconclusive: 20.6 µM [falling, partial curve, poor fit]
Cc1cc(-c2cccs2)c2c(N)c(C(=O)c3ccc4c(c3)OCO4)sc2n1 | inconclusive: 8.2 µM [activator, partial curve]
Cc1c(Cl)cccc1NC(=O)C(=O)NCCc1csc(-c2cccc(F)c2)n1 | inactive
Cc1ccc(NC(=O)C(C)OC(=O)c2n[nH]c3ccccc23)cc1 (stereo unspecified) | inconclusive: 0.164 µM [activator, full curve, poor fit]
CCc1cc2c(cc3c(=O)n(CC(=O)NCCCN(CC)CC)nc(CC)n32)s1 | inconclusive: 18.4 µM [activator, partial curve, poor fit]
COc1ccc(-c2[nH]c(-c3ccccc3)nc2SCC(=O)Nc2ccc3c(c2)OCO3)cc1 | inconclusive: 16.4 µM [falling, single point]
Nc1nc(N2CCN(Cc3ccccc3)CC2)n[nH]1 | inactive
CCOc1ccc(C(=O)C(CCC(CN(C)C)C(=O)c2ccc(OCC)cc2)CN(C)C)cc1 (stereo unspecified) | inconclusive: 18.4 µM [falling, single point]
Cc1ccc(-c2ccc(/C=C3/NC(=O)NC3=O)o2)cc1[N+](=O)[O-] | inconclusive: 20.6 µM [falling, single point]
CSc1ccccc1NC(=O)COc1ccc(Cl)cc1Cl | inconclusive: 10.3 µM [activator, partial curve, poor fit]
O=C(O)CCCn1c(O)c(C=C2N=c3ccccc3=N2)sc1=S | inconclusive: 29.1 µM [falling, single point]
COC(=O)c1cc(-c2ccccc2)n(CC(=O)O)c1C | inactive
CCc1ccc(OCC2c3cc(OC)c(OC)cc3CCN2C(=O)Cc2ccc(OC)c(OC)c2)cc1 (stereo unspecified) | inconclusive: 29.1 µM [falling, partial curve, poor fit]
Cc1ccc(NS(=O)(=O)c2ccc(NC(=O)C(C)Sc3ccc(Cl)cc3)cc2)c(C)c1 (stereo unspecified) | inconclusive: 25.9 µM [falling, single point]
O=C1CCCC2=C1C1(CCCC1)N=C(Nc1nc3cc4ccccc4cc3o1)N2 | inactive

Compound | Potency
C=C1CCN(C(CC(C)C)C(=O)NN2CCOCC2)S(=O)(=O)c2ccccc21 (stereo unspecified) | inactive
Cc1cccn2c(=O)c3cc(C#N)c(=O)n(-c4c(C)n(C)n(-c5ccccc5)c4=O)c3nc12 | inconclusive: 20.6 µM [falling, single point]
Cc1ccc(Cn2c(=N)c(C(=O)NCc3ccco3)cc3c(=O)n4ccccc4nc32)cc1 | inconclusive: 22.4 µM [falling, partial curve, poor fit]
COC(=O)c1sccc1NC(=O)c1ccccc1[N+](=O)[O-] | inactive
COc1ccc(C(C(=O)NCc2ccccc2)N(C(=O)Cn2nnc3ccccc32)c2ccc(OC)cc2)cc1 (stereo unspecified) | inactive
Cc1ccc(NC(=O)c2nc[nH]c2C(=O)N[C@@H](CCCCNC(=O)OC(C)(C)C)C(=O)OC(C)(C)C)cc1 | inconclusive: 32.6 µM [falling, partial curve, poor fit]
COC(=O)C1=C(C)NC2=C(C(=O)c3ccccc32)C1c1ccc(-c2ccc(C(=O)O)cc2)o1 (stereo unspecified) | inconclusive: 5.17 µM [falling, partial curve]
CCCCn1cc(S(=O)(=O)c2ccccc2)c(=O)c2cc(C)ccc21 | inconclusive: 18.4 µM [activator, partial curve, poor fit]
Nc1c(C(=O)Nc2ccccc2F)sc2nc(Cc3ccccc3)cc(C(F)(F)F)c12 | inconclusive: 7.31 µM [activator, partial curve]
COc1ccc(OC)c(CCNc2ncnc3onc(C)c23)c1 | inactive
Cc1cc(/C=N/NC(=O)c2ccsc2)c(C)n1-c1cnccn1 | inconclusive: 2.59 µM [falling, partial curve, poor fit]
CCCC[C@@H]1CCCO[C@@](C(=O)NCc2ccc(S(C)(=O)=O)cc2)(C(F)(F)F)C1 | inactive
Cc1ccc(C2=NN(C(=O)CCC(=O)O)C(c3cn(-c4ccccc4)nc3-c3ccc(C)cc3)C2)cc1 (stereo unspecified) | inconclusive: 16.4 µM [falling, partial curve, poor fit]
CC(C)(C)c1ccc(C(=O)NC(=O)COC(=O)c2ccc(Br)o2)cc1 | inactive
O=C(Nc1cccc(Cl)c1)C1=Cc2cc(Cl)ccc2OC1 | inconclusive: 13 µM [falling, partial curve]
Cc1ccc(-n2nc(C)c(C(=O)NCCCN3CCN(c4ccccc4F)CC3)c2-n2cccc2)cc1 | inconclusive: 29.1 µM [falling, partial curve, poor fit]
CC(C)c1ccc(NC(=O)CSC2=Nc3ccccc3C3=NC(CC(=O)NCc4ccco4)C(=O)N23)cc1 (stereo unspecified) | inactive
CCc1ccccc1N1CC(c2nc3ccccc3n2CCC2CCCCC2)CC1=O (stereo unspecified) | inconclusive: 20.6 µM [falling, single point]
Cc1nnc(N2CCC(C(=O)NCc3cccc(Cl)c3)CC2)c2nn(-c3ccccc3)c(C)c12 | inactive
COc1cccc(C2c3c(ncn(-c4cccc(C#N)c4)c3=N)Oc3ccc4ccccc4c32)c1 (stereo unspecified) | inactive
COc1cc(OC)c(NC(=O)C(C)n2nc(-c3ccc(C)c(C)c3)ccc2=O)cc1Cl (stereo unspecified) | inactive
Fc1ccc(N2N=C(c3cccs3)CC2c2ccccc2)cc1 (stereo unspecified) | inconclusive: 8.2 µM [activator, partial curve, poor fit]

Structural class: the compounds so far with a nitro group on carbon.
Compound | Potency
Cc1ccc(-c2ccc(/C=C3/NC(=O)NC3=O)o2)cc1[N+](=O)[O-] | inconclusive: 20.6 µM [falling, single point]
COC(=O)c1sccc1NC(=O)c1ccccc1[N+](=O)[O-] | inactive

Entries from the list above containing a cyano group (2):
Compound | Potency
Cc1cccn2c(=O)c3cc(C#N)c(=O)n(-c4c(C)n(C)n(-c5ccccc5)c4=O)c3nc12 | inconclusive: 20.6 µM [falling, single point]
COc1cccc(C2c3c(ncn(-c4cccc(C#N)c4)c3=N)Oc3ccc4ccccc4c32)c1 (stereo unspecified) | inactive

The results go on.

Compound | Potency
COc1ccc(C(=O)C(CCCCC(CN(C)C)C(=O)c2ccc(OC)cc2)CN(C)C)cc1 (stereo unspecified) | inconclusive: 32.6 µM [falling, partial curve, poor fit]
COc1ccccc1NC(=O)Cc1c(F)cccc1Cl | inactive
CCOc1cc(C(=O)N/N=C/C(Br)=C/c2ccccc2)cc(OCC)c1OCC | inconclusive: 5.8 µM [falling, partial curve, poor fit]
CCCN1C(C(=O)c2ccccc2)=C(OC(=O)C(C)(C)C)c2ccccc2S1(=O)=O | inconclusive: 16.4 µM [falling, single point]
Cc1ccc(S(=O)(=O)N(C)c2ccc(C(=O)N3CCN(Cc4ccc5c(c4)OCO5)CC3)cc2)cc1 | inactive
COc1ccc(CCN(Cc2ccccn2)C(=S)Nc2cccc(C)c2)cc1OC | inactive
O=C(C=Cc1cccnc1)c1ccccc1 | inconclusive: 29.1 µM [falling, partial curve, poor fit]
CCCCc1nn2c(C)c(-c3ccc(OCC)cc3)nc2s1 | inactive
O=[N+]([O-])c1ccc(NN=Cc2ccc(O)cc2O)nc1 | inconclusive: 29.1 µM [falling, partial curve, poor fit]
Cc1ccc(C)c(NC2=C(c3ccc(C(F)(F)F)cc3)C(=O)c3ccccc32)c1 | inactive
CCOCCc1nn2c(=O)cc(COC(=O)c3ccc(NC(=O)c4ccc(F)cc4)cc3)nc2s1 | inactive
CCc1ccc(C2CC(=O)N(c3cccc(C(F)(F)F)c3)C3=C2C(=O)OC3)cc1 (stereo unspecified) | inactive
Cc1cccc(Cn2nnc3c2C(=O)c2ccccc2C3=O)c1 | inconclusive: 29.1 µM [falling, single point]
Clc1ccc(OCCn2c(-c3ccco3)nc3ccccc32)cc1 | inactive
CCCN1CCCc2cc(CN(CCCN3CCOCC3)C(=O)Nc3ccc(OCC)cc3)ccc21 | inconclusive: 23.1 µM [falling, single point]
O=C(Nc1cc([N+](=O)[O-])ccc1O)c1ccc2c(c1)C(=O)N(Cc1ccco1)C2=O | inactive
CCC(C(=O)Nc1cc(OC)ccc1OC)n1nc(-c2ccccc2)c2c(c1=O)CCCC2 (stereo unspecified) | inconclusive: 29.1 µM [falling, single point]
Cc1cccc(Cn2c(SCc3ccc(C(=O)NCc4ccccc4F)cc3)nc3cccnc32)c1 | inconclusive: 32.6 µM [falling, partial curve, poor fit]
CCCS(=O)(=O)c1nc(S(=O)(=O)c2ccc(C)cc2)c(NC(C)c2ccccc2)s1 (stereo unspecified) | inactive
CCC1CCc2sc(C(=O)NCC(c3ccccc3OC)N3CCCC3)cc2C1 (stereo unspecified) | inconclusive: 25.9 µM [falling, partial curve, poor fit]
COc1ccc(N(CC(=O)Nc2cc(C)ccc2OC)S(=O)(=O)c2c(C)noc2C)cc1 | inconclusive: 13 µM [falling, partial curve, poor fit]
O=C(Nc1nc(-c2ccccn2)cs1)c1ccc(F)c(S(=O)(=O)N2CCOCC2)c1 | inconclusive: 23.1 µM [falling, single point]
